Data published in PMC10163288.
The other results are listed elsewhere or left out.

B1: il2ra_site1_1z92_sap_17_mot_9410bc1eedee1757c7b766bec531e3ee_0001_1_000000285_0001_16_30_H_._HEEHE_2503_0001_0000200009_0000001_1_0001_af2pred_0001_af2pred_1_sw … (protein)
chain: TEVEETLREAVEKNDEEELRKFIELLLRDAGDPRLVKALLRILVKRLGLPPEVLERLQELLEELT
B2: il2ra_site1_2b5i_normal_mot_HHH_b2_01040_af2_000000143_0001_42_56_H_._HHH_b1_04969_af2_0002_0000100009_0000001_0 (protein)
chain: SSSSSDEAEEAAREALELLRELLRVDEEEIKELLEEAHEKLEKLNDEALLKRVERLLRLLSSSSS
B3: il2ra_site1_3nfp_sap_31_mot_66bb1f637706d7249e1dd387c51866da_0001_1_000000122_0001_1_12_H_._17594f0aad44365367344f8cc037fc3f_0001_af2_0001_0000500022_0000001_0_ … (protein)
chain: TNLFLRELEEAKKEGTLEELLEEMIEMLKREFKFPPEEAAWLLARDAERLGDPEAAELVEELLRR
B4: il2ra_site1_1z92_sap_12_mot_HHH_b2_00249_af2_000000052_0001_39_52_H_._HHH_b2_07800_0001_0000300015_0000001_0_0001_af2pred_0001_af2pred (protein)
chain: SSSSSSEELEEFVEELVKKYGLSESAKRALERLAREALEQGADEELIKRDLHRAAEFLASSSSSS
B5: il2ra_site2_2erj_normal_mot_91f4e0b9ef636147e55e10354d5068a9_0001_000000168_0001_33_48_H_._HEEHE_1756_af2_0001_0000200003_0000001_0_1_af2pred_0001_af2pred (protein)
chain: DEEELVQRLLEEAAKLAGVPQVTVELNNGEFEITINGDDRQAELLERMAEWLLKEKGIPVRVEVE
B6: il2ra_site1_2b5i_normal_mot_HHH_b1_06520_000000001_0001_1_19_H_._HHH_eva_0123_af2_0001_0000100004_0000001_0_af2pred_0001_af2pred (protein)
chain: SSSDEELFEEANKVFKALARGKITEEWEEIVEELIKIAEELGDERLAEDLEHLLRIIQELLKSSS
B7: il2ra_site2_2erj_sap_21_mot_39ed66e5fba071e4f274ea7f2cf018e6_0001_000000286_0001_17_31_H_._HHH_b1_00857_0001_0000200006_0000001_0_0001_af2pred_0001_af2pred (protein)
chain: SSSSEEREKAKELAARALQLRERGNPEEAEELLREAEEIAREGGDEELLQLIQAALRLIELSSSS
B8: il2ra_site2_2erj_sap_15_mot_HHH_b1_05025_af2_000000233_0001_1_21_H_._HHH_b1_03724_0001_0000300012_0000001_1_0001 (protein)
chain: SSSSDLVEEAARVLLEYLRSHGDPELLRELEELLRELEKEGDPELRRELARLINEIMQKAMSSSS
B9: il2ra_site1_3nfp_normal_mot_ed4c3c7086c1f51adfb21ecdea7692dd_0001_1_af2_000000028_0001_36_50_H_._c99de99df9ecc9fdd090aa5ad7eabf9c_0001_0001_0000100003_0000001_0 … (protein)
chain: DAAKILIEAAVKRNNPRTVERFLEELEKHLRLGNPDAEEAIRLLLELLEELGNEELLRLVEEVLK
B10: il2ra_site1_2b5i_normal_mot_HHH_b2_04910_000000118_0001_1_19_H_._HHH_b2_07005_af2_0001_0000500025_0000001_0_af2pred_0001_af2pred_1 (protein)
chain: SSSSSEITEEVYRLFKEANELLRNGNPEEAKEVLERALELAEELGSPLFERTIKVALEQVGSSSS
B11: il2ra_site2_2erj_normal_mot_HHH_b1_00839_000000020_0001_43_57_H_._HHH_b2_02614_0001_0000200002_0000001_0 (protein)
chain: SSSSSEEQEESARLALELSELALKGDEEKFEEVLEEAKQFAEERNDEFLLRFIRFLERYLSSSSS
B12: il2ra_site1_2b5i_normal_mot_HHH_b1_03543_af2_000000000_0001_42_54_H_._HHH_b2_04113_af2_0001_0000200008_0000001_0_af2pred_dldesign_0_af2pred (protein)
chain: SSSSSKYEELDRLANEAFRLARRGDLERFREVAERAIALAEELGDEKIAAELRFLEELARSSSSS
B13: il2ra_site2_2erj_sap_25_mot_HHH_b2_04375_af2_000000283_0001_22_38_H_._HHH_b2_08019_0001_0001000023_0000001_0_0001 (protein)
chain: SSSSDAEEEVRELLEQAKEAFKNNDLHLVYELLVRAMHVASENNDDEALKLVAEVFEEIAKSSSS
B14: il2ra_site2_2erj_normal_mot_c2bf78bdce995293a161f7082e24b401_0001_af2_000000082_0001_17_32_H_._HHH_b1_04851_0001_0000100001_0000001_0 (protein)
chain: SSSSEVEKEAEELFEEIKEAKERGDLELLYKLANLILHLVAKYKDDHARRLLEEALELAHRSSSS
B15: il2ra_site2_2erj_normal_mot_6bd1339e93f6fdda22195c76da45ec5d_0001_000000136_0001_37_51_H_._HHH_b2_06260_0001_0000100003_0000001_0_af2pred_0001_1_af2pred_swapped (protein)
chain: SSSSSEDEERVEELLEQAEEAAKRDPEKALALLSEAAEIALESNNDELLKLVMEVFTKIARSSSS
B16: il2ra_site1_3nfp_normal_mot_HHH_b1_01159_af2_000000107_0001_1_20_H_._HHH_b2_08137_0001_0000200012_0000001_0_af2pred_0001_af2pred (protein)
chain: SSSSSEEKRRLEELLRRAHELFRRGNPEEAERVLEEAKELAEEAGNEAARRFVEVLLRIVRSSSS
B17: il2ra_site2_3nfp_sap_24_mot_66bb1f637706d7249e1dd387c51866da_0001_1_000000188_0001_1_12_H_._HHH_b2_08220_0001_0000200006_0000001_0_0001_af2pred_0001_af2pred (protein)
chain: SSSSSDEFEAEARFRFAEALAASLGDEETLERVRELLERYREEGDPEYLKEVIRLSRELRSSSSS
B18: il2ra_site2_2erj_normal_mot_HHH_b2_07015_000000077_0001_40_57_H_._HHH_b2_07938_af2_0001_0000100001_0000001_0 (protein)
chain: SSSSDVLEEAIRLVQELLKFLAEGDEEEAEKVLEEAERILEEAGNEAAVRIIREVFEQMSSSSSS

What follows are binders tested against il2ra, P01589 (assay: yeast display titration).
For B1, the “apparent Kd” value was “inactive: no binding seen”.
With B2 the “apparent Kd” value was “inactive: no binding seen”.
With B3 the “apparent Kd” value was “inactive: no binding seen”.
For B4, the “apparent Kd” value was “inactive: no binding seen”.
For B5, the “apparent Kd” value was “inactive: no binding seen”.
For B6, the “apparent Kd” value was “inactive: no binding seen”.
B7 was tested, and the “apparent Kd” value was “inactive: no binding seen”.
In the case of B8, the apparent Kd is reported as inactive: > 1500 nM.
B9 was tested, and the “apparent Kd” value was “inactive: no binding seen”.
B10 was tested, and the “apparent Kd” value was “inactive: no binding seen”.
B11 was tested, and the “apparent Kd” value was “inactive: no binding seen”.
With B12 the “apparent Kd” value was “inactive: no binding seen”.
For B13, the “apparent Kd” value was “inactive: no binding seen”.
With B14 the “apparent Kd” value was “inactive: no binding seen”.
For B15, the “apparent Kd” value was “inactive: no binding seen”.
With B16 the “apparent Kd” value was “inactive: no binding seen”.
With B17 the “apparent Kd” value was “inactive: no binding seen”.
In the case of B18, the “apparent Kd” value is reported as “inactive: no binding seen”.
